# Data as given in the supplement of paper PMC8728848.
# This is one part of the list.
# What was measured:
# Test in all cases: glycan array binding signal (z-score within array); higher = stronger binding
# Conditions in all cases: glycan notation: IUPAC condensed, linker removed
# [1] = molecular target: Fuc(a1-2)Gal
# Outline: (§1)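 Arrays were curated from the Consortium for Functional Glycomics database, 3228 in total, and kept only where the protein sequence was available. Binding is expressed as a within-array Z-score. This score was averaged across arrays of the same protein sequence at different concentrations or buffers and across linkers, and negative values can be read as non-binding.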
# [2] = molecular target: Fuc(a1-2)Gal(b1-3)GalNAc
# Outline: as §1
# [3] = molecular target: Fuc(a1-2)Gal(b1-3)GalNAc(b1-3)Gal
# Outline: as §1
# [4] = molecular target: Fuc(a1-2)Gal(b1-3)GalNAc(b1-3)Gal(a1-4)Gal(b1-4)Glc
# Outline: as §1
# [5] = molecular target: Fuc(a1-2)Gal(b1-3)GalNAc(b1-3)Gal(b1-4)Glc
# Outline: as §1
# [6] = molecular target: Fuc(a1-2)Gal(b1-3)GalNAc(b1-4)[Neu5Ac(a2-3)]Gal(b1-4)Glc
# Outline: as §1
# [7] = molecular target: Fuc(a1-2)Gal(b1-3)[Fuc(a1-4)]GlcNAc
# Outline: as §1
# [8] = molecular target: Fuc(a1-2)Gal(b1-4)Glc
# Outline: as §1
# [9] = molecular target: Fuc(a1-2)Gal(b1-4)Glc6S
# Outline: as §1
# [10] = molecular target: Fuc(a1-2)Gal(b1-4)GlcNAc
# Outline: as §1
# [11] = molecular target: Fuc(a1-2)Gal(b1-4)GlcNAc(b1-3)Gal(b1-4)GlcNAc
# Outline: as §1
# [12] = molecular target: Fuc(a1-2)Gal(b1-4)GlcNAc(b1-3)Gal(b1-4)GlcNAc(b1-3)Gal(b1-4)GlcNAc
# Outline: as §1
# [13] = molecular target: Fuc(a1-2)Gal(b1-4)GlcNAc6S
# Outline: as §1
# [14] = molecular target: Fuc(a1-2)Gal(b1-4)[Fuc(a1-3)]GalNAc(b1-3)Gal(b1-4)[Fuc(a1-3)]GlcNAc
# Outline: as §1
# [15] = molecular target: Fuc(a1-2)Gal(b1-4)[Fuc(a1-3)]GalNAc(b1-3)Gal(b1-4)[Fuc(a1-3)]GlcNAc(b1-3)Gal(b1-4)[Fuc(a1-3)]GalNAc
# Outline: as §1
# [16] = molecular target: Fuc(a1-2)Gal(b1-4)[Fuc(a1-3)]GlcNAc
# Outline: as §1
# [17] = molecular target: Fuc(a1-2)Gal6S(b1-4)Glc
# Outline: as §1
# [18] = molecular target: Fuc(a1-2)Gal6S(b1-4)Glc6S
# Outline: as §1
# [19] = molecular target: Fuc(a1-2)Gal6S(b1-4)GlcNAc
# Outline: as §1
# [20] = molecular target: Fuc(a1-2)GlcNAc
# Outline: as §1
# [21] = molecular target: Fuc(a1-2)[Gal(a1-3)]Gal
# Outline: as §1
# [22] = molecular target: Fuc(a1-2)[Gal(a1-3)]Gal(b1-3)GlcNAc
# Outline: as §1
# [23] = molecular target: Fuc(a1-2)[Gal(a1-3)]Gal(b1-4)Glc
# Outline: as §1
# [24] = molecular target: Fuc(a1-2)[Gal(a1-3)]Gal(b1-4)GlcNAc
# Outline: as §1
# [25] = molecular target: Fuc(a1-2)[Gal(a1-3)]Gal(b1-4)[Fuc(a1-3)]GlcNAc
# Outline: as §1
# [26] = molecular target: Fuc(a1-2)[Gal(a1-4)]Gal(b1-4)GalNAc
# Outline: as §1
# [27] = molecular target: Fuc(a1-2)[GalNAc(a1-3)]Gal
# Outline: as §1
# [28] = molecular target: Fuc(a1-2)[GalNAc(a1-3)]Gal(b1-3)GlcNAc
# Outline: as §1
# [29] = molecular target: Fuc(a1-2)[GalNAc(a1-3)]Gal(b1-4)Glc
# Outline: as §1
# [30] = molecular target: Fuc(a1-2)[GalNAc(a1-3)]Gal(b1-4)GlcNAc
# Outline: as §1
# [31] = molecular target: Fuc(a1-2)[GalNAc(a1-3)]Gal(b1-4)[Fuc(a1-3)]GlcNAc
# Outline: as §1
# [32] = molecular target: Fuc(a1-2)[GalNAc(a1-4)]Gal(b1-4)GlcNAc
# Outline: as §1
# [33] = molecular target: Fuc(a1-3)GlcNAc
# Outline: as §1
# [34] = molecular target: Fuc(a1-3)[Gal(b1-4)]Glc6S
# Outline: as §1
# [35] = molecular target: Fuc(a1-3)[Gal(b1-4)]GlcNAc
# Outline: as §1
# [36] = molecular target: Fuc(a1-3)[Gal(b1-4)]GlcNAc(b1-3)Gal(b1-3)[Fuc(a1-4)]GlcNAc
# Outline: as §1
# [37] = molecular target: Fuc(a1-3)[Gal(b1-4)]GlcNAc(b1-4)Gal(b1-4)[Fuc(a1-3)]GlcNAc
# Outline: as §1
# [38] = molecular target: Fuc(a1-3)[Gal(b1-4)]GlcNAc(b1-4)Gal(b1-4)[Fuc(a1-3)]GlcNAc(b1-4)Gal(b1-4)[Fuc(a1-3)]GlcNAc
# Outline: as §1
# [39] = molecular target: Fuc(a1-3)[Gal(b1-4)]GlcNAc6S
# Outline: as §1
# [40] = molecular target: Fuc(a1-3)[Gal3S(b1-4)]Glc
# Outline: as §1
# [41] = molecular target: Fuc(a1-3)[Gal3S(b1-4)]Glc6S
# Outline: as §1
# [42] = molecular target: Fuc(a1-3)[Gal3S(b1-4)]GlcNAc
# Outline: as §1
# [43] = molecular target: Fuc(a1-3)[Gal3S(b1-4)]GlcNAc6S
# Outline: as §1
# [44] = molecular target: Fuc(a1-3)[GalNAc(b1-4)]Gal(b1-4)GlcNAc
# Outline: as §1
# [45] = molecular target: Fuc(a1-4)GlcNAc
# Outline: as §1
binder,measurement,setting,value
"NKp30 (Homo sapiens), O14931 (protein) LWVSQPPEIRTLEGSSAFLPCSFNASQGRLAIGSVTWFRDEVVPGKEVRNGTPEFRGRLAPLASSRFLHDHQAELHIRDVRGHDASIYVCRVEVLGLGVGTGNGTRLVVEKEHPQLG",glycan array binding signal (z-score),[1],-0.068
same,glycan array binding signal (z-score),[2],-0.862
same,glycan array binding signal (z-score),[3],-0.277
same,glycan array binding signal (z-score),[4],-0.336
same,glycan array binding signal (z-score),[5],-0.109
same,glycan array binding signal (z-score),[6],0.315
same,glycan array binding signal (z-score),[7],-0.91
same,glycan array binding signal (z-score),[8],-0.657
same,glycan array binding signal (z-score),[9],-0.007
same,glycan array binding signal (z-score),[10],-0.918
same,glycan array binding signal (z-score),[11],-0.633
same,glycan array binding signal (z-score),[12],0.364
same,glycan array binding signal (z-score),[13],0.882
same,glycan array binding signal (z-score),[14],-0.841
same,glycan array binding signal (z-score),[15],-0.325
same,glycan array binding signal (z-score),[16],-0.412
same,glycan array binding signal (z-score),[17],0.562
same,glycan array binding signal (z-score),[18],2.23
same,glycan array binding signal (z-score),[19],0.627
same,glycan array binding signal (z-score),[20],-0.232
same,glycan array binding signal (z-score),[21],-0.106
same,glycan array binding signal (z-score),[22],-0.619
same,glycan array binding signal (z-score),[23],-0.661
same,glycan array binding signal (z-score),[24],-0.444
same,glycan array binding signal (z-score),[25],-0.895
same,glycan array binding signal (z-score),[26],-0.714
same,glycan array binding signal (z-score),[27],-0.924
same,glycan array binding signal (z-score),[28],-1.15
same,glycan array binding signal (z-score),[29],-0.615
same,glycan array binding signal (z-score),[30],-0.649
same,glycan array binding signal (z-score),[31],-0.587
same,glycan array binding signal (z-score),[32],-0.754
same,glycan array binding signal (z-score),[33],-0.957
same,glycan array binding signal (z-score),[34],0.801
same,glycan array binding signal (z-score),[35],-0.932
same,glycan array binding signal (z-score),[36],0.821
same,glycan array binding signal (z-score),[37],-0.545
same,glycan array binding signal (z-score),[38],-0.964
same,glycan array binding signal (z-score),[39],1.46
same,glycan array binding signal (z-score),[40],0.441
same,glycan array binding signal (z-score),[41],0.61
same,glycan array binding signal (z-score),[42],0.697
same,glycan array binding signal (z-score),[43],0.561
same,glycan array binding signal (z-score),[44],-0.69
same,glycan array binding signal (z-score),[45],-0.16

# Four entries from above in a different format.
binder	measurement	setting	value
NKp30 (Homo sapiens), O14931 (protein) LWVSQPPEIRTLEGSSAFLPCSFNASQGRLAIGSVTWFRDEVVPGKEVRNGTPEFRGRLAPLASSRFLHDHQAELHIRDVRGHDASIYVCRVEVLGLGVGTGNGTRLVVEKEHPQLG	glycan array binding signal (z-score)	[13]	0.882
same	glycan array binding signal (z-score)	[14]	-0.841
same	glycan array binding signal (z-score)	[15]	-0.325
same	glycan array binding signal (z-score)	[16]	-0.412
